Results published in paper PMC3163267, “Structure and Organisation of SinR, the Master Regulator of Biofilm Formation in Bacillus subtilis” (Journal of Molecular Biology, 2011).
For at least one entry, the source does not settle the construct or the ends of the probe. For some assays here: A negative result means that nothing was seen under these conditions.

Sequences of proteins named here, by UniProt entry; tags and fusion partners are left off. A change or cut given only in a name is not applied to a line headed by its entry.
UniProt P06533: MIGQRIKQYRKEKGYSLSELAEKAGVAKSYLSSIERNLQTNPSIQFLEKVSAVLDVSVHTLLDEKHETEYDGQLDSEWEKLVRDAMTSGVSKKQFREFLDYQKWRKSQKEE

Legend:
[1] = system: SinR + SinI; experiment: SPR; conditions: SinR pre-incubated with SinI above stoichiometric ratio; SPR: 10 mM Hepes pH 8.0, 150 mM NaCl, 3 mM EDTA, 0.05% P20; recombinant protein
[2] = biological target: SinR (Bacillus subtilis) (UniProt P06533); experiment: SPR (steady state); conditions: SPR: 10 mM Hepes pH 8.0, 150 mM NaCl, 3 mM EDTA, 0.05% P20; recombinant protein; residues 1-111
[3] = biological target: SinR (Bacillus subtilis) (UniProt P06533); experiment: SEC-MALLS; conditions: 1:1 SinR tetramer to duplex, complex peak 74 kDa; recombinant protein; residues 1-111
[4] = biological target: SinR (Bacillus subtilis) (UniProt P06533); experiment: EMSA; conditions: SinR 1-5 uM, DNA 0.5 uM; recombinant protein; residues 1-111
[5] = biological target: SinR (Bacillus subtilis) (UniProt P06533); experiment: fluorescence anisotropy; conditions: FA: 10 mM Hepes pH 8.0, 100 mM NaCl, 1 mM DTT, 1 mM EDTA, 5 nM HEX-DNA, 25 C; recombinant protein; residues 1-111

TTTGTTCTCTAAAGAGAACTTA (double strand) [inverted repeat SinRBM duplex, biotin]
binding result [1]: no binding | Kd [2]: 270 nM

TTTGTTCTCTAAAGAGAACTTA (double strand) [inverted repeat SinRBM duplex, label not stated]
binding result [3]: binds

TTTGTTCTCTAAAGAGAACTTA (double strand) [inverted repeat SinRBM duplex, HEX]
binding result [4]: binds | Kd [5]: 300 nM
